PubChem BioAssay AID1259266, Sanger Institute – 2017

- Test: 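Essential genes and drug synergy among kinases and colorectal-mutated genes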 (primary screen)
- System: LS123 human colorectal cancer cells
- Reagents: siRNA pool against human genes
- Treatment: anchor drugs BYL719 (1 µM), cetuximab (5 µg/ml) or trametinib (10 nM), each chosen to barely slow growth alone; DMSO vehicle as the drug-free arm
- Read-out: 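Replicate-averaged viability scaled to non-targeting pools, robust z-score for siRNA alone, and a synergy score per anchor drug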
- Scale: robust z-score, knock-down alone: higher = more cells surviving after knock-down; viability, knock-down alone: higher = more viable cells
- Units: viability, knock-down alone in fraction of control
- Rule for the call: 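Essential when the robust z-score of the knock-down alone is below -3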
- Calls: active = essential (knock-down alone cuts viability); inactive = no change
Shown is a random part of 794 reagents tested. Over the whole deposit, 16 (2%) were called active. 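Calls reflect knock-down alone, not drug synergy; viability seems capped at 1 and z-scores at 0.585.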 Not all columns of the deposit are shown. Not stated in the record: the amount of reagent, the time to read-out.

SRPK2
- robust z-score, knock-down alone: 0.585
- viability, knock-down alone: 1
- Call: inactive

TPK1
- robust z-score, knock-down alone: -0.817
- viability, knock-down alone: 0.917
- Call: inactive

COQ8B
- robust z-score, knock-down alone: 0.585
- viability, knock-down alone: 1
- Call: inactive

PRKD2
- robust z-score, knock-down alone: 0.367
- viability, knock-down alone: 0.987
- Call: inactive

WHR1
- robust z-score, knock-down alone: 0.585
- viability, knock-down alone: 1
- Call: inactive

TYRO3
- robust z-score, knock-down alone: 0.585
- viability, knock-down alone: 1
- Call: inactive

NUP98
- robust z-score, knock-down alone: -0.653
- viability, knock-down alone: 0.926
- Call: inactive

STK38L
- robust z-score, knock-down alone: -0.723
- viability, knock-down alone: 0.922
- Call: inactive

TCF7L2
- robust z-score, knock-down alone: 0.585
- viability, knock-down alone: 1
- Call: inactive

UHMK1
- robust z-score, knock-down alone: -0.0255
- viability, knock-down alone: 0.964
- Call: inactive

MAPK1
- robust z-score, knock-down alone: -0.585
- viability, knock-down alone: 0.93
- Call: inactive

PRKCH
- robust z-score, knock-down alone: -1.48
- viability, knock-down alone: 0.877
- Call: inactive

PRKCI
- robust z-score, knock-down alone: -0.151
- viability, knock-down alone: 0.956
- Call: inactive

APC
- robust z-score, knock-down alone: -1.35
- viability, knock-down alone: 0.885
- Call: inactive

POMK
- robust z-score, knock-down alone: 0.585
- viability, knock-down alone: 1
- Call: inactive

MAPK12
- robust z-score, knock-down alone: 0.585
- viability, knock-down alone: 1
- Call: inactive

PIK3C3
- robust z-score, knock-down alone: 0.585
- viability, knock-down alone: 1
- Call: inactive

PRPS1L1
- robust z-score, knock-down alone: 0.585
- viability, knock-down alone: 1
- Call: inactive

GRK3
- robust z-score, knock-down alone: 0.585
- viability, knock-down alone: 1
- Call: inactive

SOS2
- robust z-score, knock-down alone: 0.585
- viability, knock-down alone: 1
- Call: inactive

NME7
- robust z-score, knock-down alone: 0.585
- viability, knock-down alone: 1
- Call: inactive

PRKD1
- robust z-score, knock-down alone: 0.0698
- viability, knock-down alone: 0.969
- Call: inactive

PRKD3
- robust z-score, knock-down alone: -1.06
- viability, knock-down alone: 0.902
- Call: inactive

MAPK15
- robust z-score, knock-down alone: 0.585
- viability, knock-down alone: 1
- Call: inactive

GRK6
- robust z-score, knock-down alone: 0.585
- viability, knock-down alone: 1
- Call: inactive

DGKG
- robust z-score, knock-down alone: 0.369
- viability, knock-down alone: 0.987
- Call: inactive

PIP4K2B
- robust z-score, knock-down alone: 0.585
- viability, knock-down alone: 1
- Call: inactive

RYK
- robust z-score, knock-down alone: 0.585
- viability, knock-down alone: 1
- Call: inactive

ETNK1
- robust z-score, knock-down alone: 0.351
- viability, knock-down alone: 0.986
- Call: inactive

TNNI3K
- robust z-score, knock-down alone: 0.585
- viability, knock-down alone: 1
- Call: inactive

SRC
- robust z-score, knock-down alone: 0.585
- viability, knock-down alone: 1
- Call: inactive

RIPK2
- robust z-score, knock-down alone: 0.585
- viability, knock-down alone: 1
- Call: inactive

DDR2
- robust z-score, knock-down alone: 0.585
- viability, knock-down alone: 1
- Call: inactive

PEAK1
- robust z-score, knock-down alone: -0.82
- viability, knock-down alone: 0.917
- Call: inactive

PANK2
- robust z-score, knock-down alone: 0.585
- viability, knock-down alone: 1
- Call: inactive

ATRX
- robust z-score, knock-down alone: 0.585
- viability, knock-down alone: 1
- Call: inactive

Records listed so far whose gene name starts with N or n:
NUP98
- robust z-score, knock-down alone: -0.653
- viability, knock-down alone: 0.926
- Call: inactive

NME7
- robust z-score, knock-down alone: 0.585
- viability, knock-down alone: 1
- Call: inactive
